Reference: patent publication US6777536
These are yes or no findings as the source states them, for the method shown. A result given as binding can be weak or reduced; the word gives no strength. Tags and fused reporters may be left off the sequences shown.

Molecular target: cell surface ligand expressed endogenously in the rat liver stromal cell line BRL-3A (rat)
Assay: panel of cell lines treated with AP fusion supernatant at 1,000 OD/hr/ml, colorimetric assay of bound AP activity

- binding: binds
B1: mek4-AP soluble receptor fusion protein (mouse Mek4 receptor extracellular domain fused to secreted human placental alkaline phosphatase) (receptor, not shown: large carriers)
chain: ELSPQPSNEVNLLDSKTIQGELGWISYPSHGWEEISGVDEHYTPIRTYQVCNVMDHSQNNWLRTNWVPRNSAQKIYVELKFTLRDCNSIPLVLGTCKETFNLYYMESDDHGVKFREHQFTKIDTIAADESFTQMDLGDRILKLNTEIREVGPVNKKGFYLAFQDVGACVALVSVRVYFKKCPFTVKNLAMFPDTVPMDSQSLVEVRGSCVNNSKEEDPPRMYCSTEGEWLVPIGKCTCNAGYEERGFICQACRPGFYKASDGAAKCAKCPPHSSTQEDGSMNCRCENNYFRAEKDPPSMACARPPSAPRNVISNINETSVILDWSWPLDTGGRKDITFNIICKKCGWNVRQCEPCSPNVRFLPRQLGLTNTTVTVTDLLAHTNYTFEIDAVNGVSELSSPPRQYAAVSITTNQAAPSPVMTIKKDRTSRNSISLSWQEPEHPNGIILDYEVKYYQKQEQETSYTILRARGTNVTISSLKPDTTYVFQIRARTAAGYGTNSRKFEFETSPDSFSISGENSHGSSG
